Data on one molecule can be found in article PMC5520900.

These are yes or no findings as the source states them, for the method shown. In cells and extracts the contact can be indirect. Some results given as binding are weak or reduced against the parent protein; the word gives no strength. Sequences can lack the tags named with a protein.

For the assay, the target named is T1, AKAP121 (mouse) (UniProt O08715).
T1 sequence: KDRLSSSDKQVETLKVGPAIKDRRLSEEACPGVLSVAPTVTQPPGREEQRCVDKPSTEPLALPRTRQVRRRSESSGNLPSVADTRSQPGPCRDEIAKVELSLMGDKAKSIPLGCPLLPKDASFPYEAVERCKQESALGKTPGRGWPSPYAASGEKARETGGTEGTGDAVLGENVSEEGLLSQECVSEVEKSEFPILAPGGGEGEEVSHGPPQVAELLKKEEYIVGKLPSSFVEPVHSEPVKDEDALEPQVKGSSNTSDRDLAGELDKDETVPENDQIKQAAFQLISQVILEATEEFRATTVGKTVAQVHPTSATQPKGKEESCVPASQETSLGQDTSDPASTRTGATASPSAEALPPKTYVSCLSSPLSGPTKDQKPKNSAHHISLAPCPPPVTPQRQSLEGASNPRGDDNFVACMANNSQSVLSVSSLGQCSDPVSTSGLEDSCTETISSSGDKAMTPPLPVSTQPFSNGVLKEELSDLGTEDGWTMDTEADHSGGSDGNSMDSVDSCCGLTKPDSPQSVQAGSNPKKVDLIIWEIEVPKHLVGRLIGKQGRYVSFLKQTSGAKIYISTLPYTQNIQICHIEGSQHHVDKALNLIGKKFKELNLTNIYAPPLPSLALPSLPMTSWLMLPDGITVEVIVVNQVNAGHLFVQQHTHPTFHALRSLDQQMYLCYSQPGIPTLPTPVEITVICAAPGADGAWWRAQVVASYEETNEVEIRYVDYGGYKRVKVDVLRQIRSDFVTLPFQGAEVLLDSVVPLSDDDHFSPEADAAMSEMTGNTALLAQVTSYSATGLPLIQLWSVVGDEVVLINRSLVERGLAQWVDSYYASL
Briefly: co-IP; HEK293 cells transiently transfected with AKAP121 and sestrin2-flag; untreated or treated with H2O2 (400 uM for 0.5, 1 and 3 h, or 1 h at increasing concentrations); lysis in TBS with 1% Triton X-100, 150 mM NaCl, 50 mM Tris-HCl pH 7.5; immunoprecipitation with anti-AKAP121 antibody, immunoblot.

B1: sestrin2-flag (protein, UniProt P58004 1-480)
chain: MIVADSECRAELKDYLRFAPGGVGDSGPGEEQRESRARRGPRGPSAFIPVEEVLREGAESLEQHLGLEALMSSGRVDNLAVVMGLHPDYFTSFWRLHYLLLHTDGPLASSWRHYIAIMAAARHQCSYLVGSHMAEFLQTGGDPEWLLGLHRAPEKLRKLSEINKLLAHRPWLITKEHIQALLKTGEHTWSLAELIQALVLLTHCHSLSSFVFGCGILPEGDADGSPAPQAPTPPSEQSSPPSRDPLNNSGGFESARDVEALMERMQQLQESLLRDEGTSQEEMESRFELEKSESLLVTPSADILEPSPHPDMLCFVEDPTFGYEDFTRRGAQAPPTFRAQDYTWEDHGYSLIQRLYPEGGQLLDEKFQAAYSLTYNTIAMHSGVDTSVLRRAIWNYIHCVFGIRYDDYDYGEVNQLLERNLKVYIKTVACYPEKTTRRMYNLFWRHFRHSEKVHVNLLLLEARMQAALLYALRAITRYMT
Consider B1, for which the binding entry is “binds”.
